Reference: patent US20260008852A1
These are yes or no findings as the source states them, for the method shown. Binding calls can cover weak binding; strength is not graded here.

Molecular target: His-tagged cynomolgus monkey B7-H3 (cynomolgus monkey)
Assay: ELISA, coated His-tagged antigen

| binding | Binder |
| --- | --- |
| binds | 40579p1.H6 (scFv, V domains shown) VH: EVQLLESGGGLVQPGGSLRLSCAASGFTVNNAWMSWVRQAPGKGLEWVSAISYGGSIYYADSVKGRFTISRDNSKNTLYLQMNSLRAEDTAVYYCAKHRSTTYNGMDVWGQGTTVTVSS VL: EIVLTQSPGTLSLSPGERATLSCRASQSVGSFLAWYQQKPGQAPRLLIYGANTRAAGIPDRFRGSGNGTDFTLTISSLQSEDFAVYYCQQYYDWPPLTFGGGTKVEIK |
| binds | 40579p1.E5 (scFv, V domains shown) VH: EVQLLESGGGLVQPGGSLRLSCAASGFTFSDDWMTWVRQAPGKGLEWVSAINWNGNSTHYADSVKGRFTVSRDNSKNTLYLQMNSLRAEDTAVYYCAKSRTTYYSSMDVWGQGTTVTVSS VL: EIVLTQSPGTLSLSPGERATLSCRASQTVGSYLAWYQQKPGQAPRLLIYGASSRATGIPARFSGSGSGTDFTLTISSLQSEDFAVYYCQHYYDWPPYSFGGGTKVEIK |
| binds | 40511p1.1.D8 (scFv, V domains shown) VH: DVQLVESGGGVVRPGESLRLSCAASGFTFSSYAMSWVRQAPGEGLEWVSSISGSGGSTLYADSVKGRFTISRDSSNNSLYLQMNSLRAEDTAVYYCAKARNNFFDYWGLGTLVTVSS VL: EIVLTQSPGTLTLSPGERATLSCRASRSILTSLAWYQQRPGQAPRLLIYGANSRATGIPDRFSGSGSGTEFTLTISSLQSEDFAVYYCQQYYDWLTITFGGGTKVEIK |
| binds | 40511p1.2.B5 (scFv, V domains shown) VH: DVQLVESGGGVVRPGESLRLSCAASGFTFSSYAMSWVRQAPGEGLEWVSSISGSGGSTLYADSVKGRFTISRDSSNNSLYLQMNSLRAEDTAVYYCAKARNNFFDYWGLGTLVTVSS VL: EIVLTQSPGTLTLSPGERATLSCRASRSILTSLAWYQQRPGQTPRLLIYGANSRATGIPDRFSGSGSGTEFTLTISSLQSEDFAVYYCQQYYDWLTITFGGGTKVEIK |
| binds | 40579p1.C2 (scFv, V domains shown) VH: EVQLLESGGDLVQPGGSLRLSCAASGFNFSSYWMSWVRQAPGKGLEWVSGISISYGGNAYYADSVKGRFTVSRDNSKNTLYLQMNSLRAEDTAVYYCGRDRSPYQYRSMDVWGQGTTVTVSS VL: EIVLTQSPATLSVSPGERATFSCRASQTIGNKLAWYQQKPGQAPRLLIFSASTRATDIPDRFSGSGSGTDFTLTISSLQSEDFAVYYCQQYNNWPPLTFGGGTKVEIK |
| binds | 40579p1.F7 (scFv, V domains shown) VH: EVQLLESGGGLVQPGGSLRLSCAASGFTFSDYYMSWVRQAPGKGLEWVSGISISYGGNAYYADSVKGRFTVSRDNSKNTLYLQMNSLRAEDTAVYYCGRDRSPYQYRSMDVWGQGTTVTVSS VL: EIVLTQSPGTLSLSPGERATLTCRASQSVGDFLAWYQQKPGQAPRLLIYGASTRAAGIPARFRGSGSGTDFTLTISSLQSEDFAVYYCQQYKNWPPLTFGGGTKVEIK |
| binds | 40511p1.1.A1 (scFv, V domains shown) VH: DVQLVESGGGVVRPGESLRLSCAASGFTFSNYAMNWVRQAPGEGLEWVSRINYKGYNITYYADSVKGRFTISRDNSKNTLYLQMNSLRAEDTAVYYCAKSGSNSNNFFDYWGLGTLVTVSS VL: EIVLTQSPGTLSVSPGERATLSCRASQSVNSKLAWYQQRPGQAPRLLIYDASSRATGIPDRFSGSGSGTDFTLTISRLEPEDFAVYYCQQYKNWPPLTFGGGTKVEIK |
| binds | 40511p1.2.G10 (scFv, V domains shown) VH: DVQLVESGGGVVRPGESLRLSCAASGFTFSNYAMNWVRQAPGEGLEWVSRINYKGYNITYYADSVKGRFTISRDNSKNTLYLQMNSLRAEDTAVYYCAKSGSNSNNFFDYWGLGTLVTVSS VL: EIVLTQSPGTLSLSPGERATLSCRASQTVGSKLAWYQQKPGQAPRLLIYGASTRATDIPDRFSGSGSGTEFTLTISSLQSEDFAVYYCQQYINWPPLSFGGGTKVEIK |
| binds | 40579p1.B8 (scFv, V domains shown) VH: EVQLLESGGGLVQPGGSLRLSCAASGFTFSDYYMSWVRQAPGKGLEWVSGISMSSTIYYADSVKGRFTISRDNSKNTLYLQMNSLRAEDTAVYYCARHRSPYQYRSMDVWGQGTTVTVSS VL: EIVLTQSPGTLSLSPGERATLSCRASQSVNSKLAWYQQKPGQPPSLLIYDASRRATGIPDRFSGSGSGTEFTLTISSLQSEDFAVYYCQQYNNWPPLTFGGGTKVEIK |
| binds | 40511p1.2.A12 (scFv, V domains shown) VH: DVQLVESGGGVVRPGESLRLSCAASGFTFSSYAESWVRQAPGEGLEWVSIISGSGGNTFYADSVKGRFTISRDNSKNTLYLQMNSLRAEDTAVYYCARFAYGFFDYWGLGTLVTVSS VL: EIVLTQSPGTLSVSPGERATLSCRASQTVGSKLAWYQQKPGQPPSLLIYDASTRATGIPDRFSGSGSGTDFTLTISSLQSEDFAVYYCQQYRNWPPLTFGGGTKVEIK |
| binds | 40511p1.1.H5 (scFv, V domains shown) VH: DVQLVESGGGVVRPGESLRLSCAASGFTFSNYAMNWVRQAPGEGLEWVSRINYKGYNITYYADSVKGRFTISRDNSKNTLYLQMNSLRAEDTAVYYCAKSGSNSNNFFDYWGLGTLVTVSS VL: EIVLTQSPGTLSLSPGERATLSCRASQSIRSDLAWYQQKPGQAPRLLIYGAASRATGIPARFSGSGSGTEFTLTISSLQSGDFAVYYCQQYNSWPPLTFGGGTKVEIK |
| binds | 40511p1.2.A4 (scFv, V domains shown) VH: DVQLVESGGGVVRPGESLRLSCAASGFTFSSYAESWVRQAPGEGLEWVSIISGSGGNTFYADSVKGRFTISRDNSKNTLYLQMNSLRAEDTAVYYCARFAYGFFDYWGLGTLVTVSS VL: EIVLTQSPGTLSVSPGERATLSCRASQTVGSKLAWYQQKPGQAPRLLIYDASTRATDIPDRFSGSGSGTDFTLTISSLQSEDFAVYYCQQYRNWPPLTFGGGTKVEIK |
| binds | 40511p1.1.H10 (scFv, V domains shown) VH: DVQLVESGGGVVRPGESLRLSCAASGFTFSNYAMNWVRQAPGEGLEWVSRINYKGYNITYYADSVKGRFTISRDNSKNTLYLQMNSLRAEDTAVYYCAKSGSNSNNFFDYWGLGTLVTVSS VL: EIVLTQSPGNLSLSPGERATLSCRASQSVGSQLGWYQQKPGQAPRLLIYGASTRATGIPDRFSGSGSGTEFALTISSLQSEDFAVYYCQQYYDWPPLTFGGGTKVEIK |
| binds | 40511p1.1.D6 (scFv, V domains shown) VH: DVQLVESGGGVVRPGESLTLSCAASGFTINSYAVSWVRQAPGEGLEWVSGISGSGVRYYADSVKGRFTISRDNSNNTLYLQMNSLRAEDTAVYYCARSNKVTWNNFFDYWGLGTLVTVSS VL: EVVLTQSPGTLTLSPGERATLSCRASRSILTSLAWYQQKPGQAPRLLIYNTVTRATGIPARFSGSGSGTEFTLTINSLQSEDFAVYYCQQYYDWPPLTFGGGTKVEIK |
| binds | 40511p1.1.G3 (scFv, V domains shown) VH: DVQLVESGGGVVRPGESLTLSCAASGFTINSYAVSWVRQAPGEGLEWVSGISGSGVRYYADSVKGRFTISRDDSNNTLYLQMNSLRAEDTAVYYCARSNKVTWNNFFDYWGLGTLVTVSS VL: EVVLTQSPGTLTLSPGERATLSCRASRSILTSLAWYQQKPGQAPRLLIYNTVTRATGIPARFSGSGSGTEFTLTINSLQSEDFAVYYCQQYYDWPPLTFGGGTKVEIK |
| binds | 40511p1.1.G1 (scFv, V domains shown) VH: DVQLVESGGGVVRPGESLRLSCAASGFTFSSYAESWVRQAPGEGLEWVSIISGSGGNTFYADSVKGRFTISRDNSKNTLYLQMNSLRAEDTAVYYCARFAYGFFDYWGLGTLVTVSS VL: EIVLTQSPGTLSVSPGEGATLSCRASQTVGSKLAWYQQKPGQPPSLLIYDASTRATGIPDRFSGSGSGTDFTLTISSLQSEDFAVYYCQQYRNWPPLTFGGGTKVEIK |
